Assay in all cases: co-IP; protein extracts of wild type S. pombe cells expressing chromosomally tagged proteins; 500 ug protein, IP with anti-MYC or anti-FLAG overnight at 4 C, protein A/G sepharose; lysis buffer PBS pH 7.0, 200 mM NaCl, 0.5 mM EGTA, 0.5 mM EDTA, 0.1% Triton X100; five washes at 220 mM NaCl; blots with anti-HA, anti-FLAG or anti-MYC
The target in one test is T1, Spt7 (S. pombe) (UniProt P87152).
T1 sequence: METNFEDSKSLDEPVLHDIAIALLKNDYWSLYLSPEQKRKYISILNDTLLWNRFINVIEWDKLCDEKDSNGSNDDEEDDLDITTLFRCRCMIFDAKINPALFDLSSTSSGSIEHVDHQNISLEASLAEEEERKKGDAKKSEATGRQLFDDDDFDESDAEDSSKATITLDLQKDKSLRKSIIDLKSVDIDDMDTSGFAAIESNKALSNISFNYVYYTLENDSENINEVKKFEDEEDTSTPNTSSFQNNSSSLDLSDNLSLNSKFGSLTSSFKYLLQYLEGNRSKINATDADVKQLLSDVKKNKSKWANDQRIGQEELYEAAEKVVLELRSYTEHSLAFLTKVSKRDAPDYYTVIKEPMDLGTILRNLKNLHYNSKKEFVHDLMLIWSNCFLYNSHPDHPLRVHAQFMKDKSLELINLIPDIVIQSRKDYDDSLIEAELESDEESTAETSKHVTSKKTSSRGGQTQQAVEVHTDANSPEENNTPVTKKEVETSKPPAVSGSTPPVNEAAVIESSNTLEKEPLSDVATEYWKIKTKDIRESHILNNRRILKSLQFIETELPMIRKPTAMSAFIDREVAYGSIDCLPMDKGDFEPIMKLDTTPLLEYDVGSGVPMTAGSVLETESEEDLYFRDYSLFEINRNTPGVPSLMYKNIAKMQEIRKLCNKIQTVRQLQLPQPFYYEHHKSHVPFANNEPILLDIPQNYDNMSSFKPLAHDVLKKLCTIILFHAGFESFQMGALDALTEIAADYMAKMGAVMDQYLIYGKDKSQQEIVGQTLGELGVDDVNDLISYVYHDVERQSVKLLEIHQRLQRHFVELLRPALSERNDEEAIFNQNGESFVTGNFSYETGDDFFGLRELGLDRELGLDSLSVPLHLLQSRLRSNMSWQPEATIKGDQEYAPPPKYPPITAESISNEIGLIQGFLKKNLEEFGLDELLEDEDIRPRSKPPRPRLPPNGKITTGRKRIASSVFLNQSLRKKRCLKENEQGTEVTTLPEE

Protein sequences, listed by entry. Tags and fused reporters are not part of them.
UniProt O94529: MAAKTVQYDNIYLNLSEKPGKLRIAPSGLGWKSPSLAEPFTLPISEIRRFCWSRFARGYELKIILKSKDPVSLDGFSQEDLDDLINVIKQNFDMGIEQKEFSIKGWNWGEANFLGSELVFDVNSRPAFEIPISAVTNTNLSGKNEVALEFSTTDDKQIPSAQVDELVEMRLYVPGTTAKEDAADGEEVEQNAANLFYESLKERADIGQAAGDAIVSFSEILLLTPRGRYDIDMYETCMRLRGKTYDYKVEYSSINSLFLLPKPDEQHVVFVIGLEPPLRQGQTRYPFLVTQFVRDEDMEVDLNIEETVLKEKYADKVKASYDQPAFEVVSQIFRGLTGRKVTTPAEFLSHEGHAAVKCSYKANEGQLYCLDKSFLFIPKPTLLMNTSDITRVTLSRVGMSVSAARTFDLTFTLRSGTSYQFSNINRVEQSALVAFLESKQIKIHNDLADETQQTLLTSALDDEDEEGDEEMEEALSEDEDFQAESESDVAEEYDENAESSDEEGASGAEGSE

A further test has as its target Pob3 (S. pombe) (UniProt O94529).
Another test has as its target T2, Epe1 (S. pombe) (UniProt O94603).
T2 sequence: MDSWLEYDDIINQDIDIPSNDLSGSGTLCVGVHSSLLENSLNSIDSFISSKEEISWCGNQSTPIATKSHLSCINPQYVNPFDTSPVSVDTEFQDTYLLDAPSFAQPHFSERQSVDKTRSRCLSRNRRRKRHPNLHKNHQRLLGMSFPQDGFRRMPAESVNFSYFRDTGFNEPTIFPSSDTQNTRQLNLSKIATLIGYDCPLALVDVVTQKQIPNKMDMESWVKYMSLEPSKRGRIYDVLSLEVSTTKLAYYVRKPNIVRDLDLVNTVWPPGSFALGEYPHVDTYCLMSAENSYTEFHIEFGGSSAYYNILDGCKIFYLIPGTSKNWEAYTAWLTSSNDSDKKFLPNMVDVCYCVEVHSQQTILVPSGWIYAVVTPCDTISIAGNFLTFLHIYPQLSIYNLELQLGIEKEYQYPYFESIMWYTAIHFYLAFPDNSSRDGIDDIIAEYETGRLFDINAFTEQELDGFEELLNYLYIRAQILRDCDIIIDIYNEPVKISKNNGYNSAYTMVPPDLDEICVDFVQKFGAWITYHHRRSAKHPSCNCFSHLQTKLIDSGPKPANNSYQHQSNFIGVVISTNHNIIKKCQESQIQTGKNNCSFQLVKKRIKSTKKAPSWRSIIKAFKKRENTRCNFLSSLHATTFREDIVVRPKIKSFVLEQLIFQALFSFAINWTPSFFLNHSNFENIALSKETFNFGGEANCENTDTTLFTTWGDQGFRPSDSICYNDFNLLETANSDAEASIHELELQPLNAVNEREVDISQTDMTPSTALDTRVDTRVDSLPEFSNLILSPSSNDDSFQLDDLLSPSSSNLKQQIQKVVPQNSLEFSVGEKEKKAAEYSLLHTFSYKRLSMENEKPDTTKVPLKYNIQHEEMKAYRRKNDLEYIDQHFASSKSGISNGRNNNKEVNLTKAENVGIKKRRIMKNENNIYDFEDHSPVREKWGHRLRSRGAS

The target in a further test is T3, Cdc73 (S. pombe) (UniProt Q9UUE7).
T3 sequence: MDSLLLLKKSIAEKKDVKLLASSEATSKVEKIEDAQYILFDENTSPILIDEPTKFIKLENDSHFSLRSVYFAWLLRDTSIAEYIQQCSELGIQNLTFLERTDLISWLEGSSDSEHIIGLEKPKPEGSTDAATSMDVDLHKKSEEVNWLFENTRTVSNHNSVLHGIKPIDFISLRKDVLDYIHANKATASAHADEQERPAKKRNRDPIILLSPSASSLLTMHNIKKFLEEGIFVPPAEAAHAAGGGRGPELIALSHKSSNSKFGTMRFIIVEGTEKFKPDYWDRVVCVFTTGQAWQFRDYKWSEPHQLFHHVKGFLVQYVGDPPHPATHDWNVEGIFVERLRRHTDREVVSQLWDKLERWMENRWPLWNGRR

These are yes or no findings as the source states them, for the method shown. Binding seen in cells or lysates may run through a third protein. Some binding calls cover weakened binding; strength is not graded here.

B1: Gad8 (protein, UniProt Q9P7J8 1-569)
chain: MSWKLTKKLKETHLASAIGLNSGGSSFTRGLKNSTLSSTSSRKSSDEKSRKSSEDKRSPQSTVVQPGLLQVTIIEARNLKLPSGHVPANYGVSIDNSLLAPPLSNGSGHARSRSHAWWLPYIVVEFDKNEILVDALNTASLENPCWDYQATFDVSRYSKLSLNIYLRSSSSRSRNGMGNDAFLGGIKLSPSFIVNKLTDEWVPLHGGSGELRVQMLYKPNQSTPLTIDAFELLKVVGKGSFGKVMQVRKRDTSRIYALKTMKKAHIVSRSEVDHTLAERTVLAQVNNPFIVPLKFSFQSPGKLYLVLAFVNGGELFHHLQREGCFDTYRAKFYIAELLVALECLHEFNVIYRDLKPENILLDYTGHIALCDFGLCKLNMAKTDRTNTFCGTPEYLAPELLLGHGYTKVVDWWTLGVLLYEMITGLPPFYDENINEMYRKILQDPLRFPDNIDEKAKDLLSGLLTRAPEKRLGSGGAQEIKNHPFFDDIDWKKLCAKKIQPPFKPSVESAIDTSNFDSEFTSEIPMDSVVADSHLSETVQQRFANWSYQRPTTIDTSDDINTIAPGSVIR
B1: the binding entry in the test with Spt7 (S. pombe) is on record as “binds”; with Pob3 (S. pombe) it was “binds”; with Epe1 (S. pombe) it was “no binding”; in the test with Cdc73 (S. pombe), “no binding”.

Values taken from article PMC8880919.
